Numbering of substitutions follows the chain as printed. These are yes or no findings as the source states them, for the method shown. In cells and extracts the contact can be indirect. Some binding calls cover weakened binding; strength is not graded here.
Assays:
Assay in all cases: co-IP; Stu2-HA precipitated with anti-HA magnetic beads from 90 mg cryo-milled yeast extract in 1x PBS pH 7.4 with 0.1% Tween; precipitate blotted with anti γ-tubulin (anti-Tub4)
[1] = molecular target: T1, Stu2-K252,469,870R-3xHA (S. cerevisiae) (UniProt P46675)
T1 sequence: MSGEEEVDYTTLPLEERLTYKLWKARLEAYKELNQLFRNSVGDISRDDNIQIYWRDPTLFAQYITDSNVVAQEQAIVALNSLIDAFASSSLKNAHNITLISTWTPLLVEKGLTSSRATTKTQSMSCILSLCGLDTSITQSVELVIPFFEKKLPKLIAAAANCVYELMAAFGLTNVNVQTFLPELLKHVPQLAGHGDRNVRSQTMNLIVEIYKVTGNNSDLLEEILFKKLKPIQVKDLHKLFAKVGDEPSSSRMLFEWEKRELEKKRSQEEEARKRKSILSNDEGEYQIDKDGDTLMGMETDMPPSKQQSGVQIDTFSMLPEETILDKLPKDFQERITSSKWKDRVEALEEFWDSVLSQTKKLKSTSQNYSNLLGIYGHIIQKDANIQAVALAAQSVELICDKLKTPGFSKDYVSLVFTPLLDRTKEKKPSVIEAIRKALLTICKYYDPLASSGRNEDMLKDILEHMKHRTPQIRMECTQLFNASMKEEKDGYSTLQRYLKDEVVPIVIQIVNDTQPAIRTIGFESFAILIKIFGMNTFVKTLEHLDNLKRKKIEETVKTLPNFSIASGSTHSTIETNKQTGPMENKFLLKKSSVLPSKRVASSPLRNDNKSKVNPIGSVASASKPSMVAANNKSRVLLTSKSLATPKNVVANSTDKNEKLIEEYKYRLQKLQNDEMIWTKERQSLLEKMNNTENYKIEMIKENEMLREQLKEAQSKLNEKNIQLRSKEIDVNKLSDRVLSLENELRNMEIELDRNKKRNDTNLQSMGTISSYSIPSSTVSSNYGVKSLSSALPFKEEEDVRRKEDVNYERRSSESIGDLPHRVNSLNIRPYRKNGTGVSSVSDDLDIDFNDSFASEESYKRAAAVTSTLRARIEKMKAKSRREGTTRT

[2] = molecular target: T2, Stu2-K469Q-3xHA (S. cerevisiae) (UniProt P46675)
T2 sequence: T1 sequence with R252K, R469Q, R870K

[3] = molecular target: T3, Stu2-K870Q-3xHA (S. cerevisiae) (UniProt P46675)
T3 sequence: T1 sequence with R252K, R469K, R870Q

binding [1]: binds | binding [2]: binds | binding [3]: binds
B1: γ-tubulin (Tub4) (protein, UniProt P53378 1-473)
chain: MGGEIITLQAGQCGNHVGKFLWSQLAKEHAIGTDGLSQLPDSSTERDDDTKPFFRENSRNKFTPRAIMMDSEPSVIADVENTFRGFFDPRNTWVASDGASAGNSWANGYDIGTRNQDDILNKIDKEIDSTDNFEGFQLLHSVAGGTGSGLGSNLLEALCDRYPKKILTTYSVFPARSSEVVVQSYNTILALRRLIEDSDATVVFDNASLLNISGKVFRNPNIDLQHTNQLISTIISSVTNSIRFPSYMYSSMSSIYSTLIPSPELHFLSPSFTPFTSDYIHDDIAHKGHSSYDVMLDLLDPSNSLVSTAMNNPTYFNVYNTIIGNVEPRQISRAMTKLQQRIKFPSWSSSAMHVNIGRRSPYLPLQPNENEVSGMMLSNMSTVVNVFENACNTFDKVFAKGAFLNNYNVGDLFQSMQNVQDEFAESREVVQSLMEDYVAAEQDSYLDDVLVDDENMVGELEEDLDADGDHKLV
